Measurements taken from patent US20110166144A1, “Pyrimidotriazinediones and Pyrimidopyrimidinediones and Methods of Using the Same” (THE REGENTS OF THE UNIVERSITY OF MICHIGAN, priority 2008, published 2011).

System: β-catenin/TCF complex
Type: cell-based
Settings: ratio of WST-1 LD50 to reporter IC50 in IEC18 cells

Going from `Cc1ccc(-c2nc3c(=O)n(C)c(=O)nc-3n(CCO)n2)cc1` [Compound 8b, 1-(2-Hydroxyethyl)-6-methyl-3-(4-methylphenyl)pyrimido[5,4-e][1,2,4]triazine-5,7(1H,6H)-dione] to `Cn1c(=O)nc2n(CCO)nc(-c3ccc(Cl)cc3)nc-2c1=O` [Compound 8c, 3-(4-Chlorophenyl)-1-(2-hydroxyethyl)-6-methylpyrimido[5,4-e][1,2,4]triazine-5,7(1H,6H)-dione], the LD50/IC50 falls from 7.94 to 1.39.

Going from `Cn1nc(-c2ccc(F)cc2)nc2c(=O)n(C)c(=O)nc1-2` [Compound 5f, 3-(4-Fluorophenyl)-1,6-dimethylpyrimido[5,4-e][1,2,4]triazine-5,7(1H,6H)-dione] to `Cc1ccc(-c2nc3c(=O)n(C)c(=O)nc-3n(C)n2)cc1` [Compound 5e, 1,6-Dimethyl-3-(4-methylphenyl)pyrimido[5,4-e][1,2,4]triazine-5,7(1H,6H)-dione], the LD50/IC50 falls from 3.67 to 1.23.

First: Cn1nc(-c2ccccc2)[n+]([O-])c2c(=O)n(C)c(=O)nc1-2
Second: Cn1nc(-c2ccc(Cl)cc2)[n+]([O-])c2c(=O)n(C)c(=O)nc1-2
The LD50/IC50 of the first is higher: 3.49 for the first, 2.87 for the second.

Going from `CCN(CC)CCOc1ccc(-c2nc3c(=O)n(C)c(=O)nc-3n(C)n2)cc1` [Compound 5l, 3-(4-(2-(Diethylamino)ethoxy)phenyl)-1,6-dimethylpyrimido[5,4-e][1,2,4]triazine-5,7(1H,6H)-dione] to `Cn1nc(-c2ccc(Cl)cc2)nc2c(=O)n(C)c(=O)nc1-2` [Compound 5h, 3-(4-Chlorophenyl)-1,6-dimethylpyrimido[5,4-e][1,2,4]triazine-5,7(1H,6H)-dione], the LD50/IC50 falls from 8.32 to 2.70.

Going from `Cn1c(=O)nc2n(CCO)nc(-c3ccc(OCCN4CCCC4)cc3)nc-2c1=O` [Compound 8f, 1-(2-Hydroxyethyl)-6-methyl-3-(4-(2-(pyrrolidin-1-yl)ethoxy)phenyl)pyrimido[5,4-e][1,2,4]triazine-5,7(1H,6H)-dione] to `COc1ccc(-c2nc3c(=O)n(C)c(=O)nc-3n(CCO)n2)cc1` [Compound 8e, 1-(2-Hydroxyethyl)-3-(4-methoxyphenyl)-6-methylpyrimido[5,4-e][1,2,4]triazine-5,7(1H,6H)-5,7-dione], the LD50/IC50 rises from 1.16 to 1.38.

Compared with `Cn1nc(-c2cccc(Cl)c2)nc2c(=O)n(C)c(=O)nc1-2` [Compound 5i, 3-(3-Chlorophenyl)-1,6-dimethylpyrimido[5,4-e][1,2,4]triazine-5,7(1H,6H)-dione], `Cn1nc(-c2ccccc2)nc2c(=O)n(C)c(=O)nc1-2` [Compound 5d, 1,6-Dimethyl-3-phenylpyrimido[5,4-e][1,2,4]triazine-5,7(1H,6H)-dione] is lower in LD50/IC50: 4.75 for the first, 2.62 for the second.

Compared with `Cn1c(=O)nc2n(CCO)nc(-c3ccccc3)nc-2c1=O` [Compound 8a, 1-(2-Hydroxyethyl)-6-methyl-3-phenylpyrimido[5,4-e][1,2,4]triazine-5,7(1H,6H)-dione], `Cn1c(=O)nc2n(CCO)nc(-c3ccccn3)nc-2c1=O` [Compound 8j, 1-(2-Hydroxyethyl)-6-methyl-3-(pyridin-2-yl)pyrimido[5,4-e]-[1,2,4]triazine-5,7(1H,6H)-dione] is higher in LD50/IC50: 2.16 for the first, 2.51 for the second.

First: Cn1nc(-c2ccccc2F)nc2c(=O)n(C)c(=O)nc1-2 [Compound 5g, 3-(2-Fluorophenyl)-1,6-dimethylpyrimido[5,4-e][1,2,4]triazine-5,7(1H,6H)-dione]
Second: Cn1nc(-c2ccccc2F)nc2c(=O)n(Cc3ccc(F)c(F)c3)c(=O)nc1-2 [Compound 17e, 6-(3,4-Difluorobenzyl)-3-(2-fluorophenyl)-1-methylpyrimido[5,4-e][1,2,4]triazine-5,7(1H,6H)-dione]
The LD50/IC50 of the first is lower: 3.64 for the first, 4.36 for the second.

First: CCN(CC)CCOc1ccc(-c2nnc3c(n2)c(=O)n(C)c(=O)n3Cc2cccc(F)c2)cc1 [Compound 10c, 3-(4-(2-(Diethylamino)ethoxy)phenyl)-8-(3-fluorobenzyl)-6-methylpyrimido[5,4-e][1,2,4]triazine-5,7(6H,8H)-dione]
Second: CCN(CC)CCOc1ccc(-c2nnc3c(n2)c(=O)n(C)c(=O)n3Cc2ccc(F)c(F)c2)cc1 [Compound 10g, 3-(4-(2-(Diethylamino)ethoxy)phenyl)-8-(3,4-difluorobenzyl)-6-methylpyrimido[5,4-e][1,2,4]triazine-5,7(6H,8H)-dione]
The LD50/IC50 of the first is lower: 0.92 for the first, 3.67 for the second.

Compared with `CCc1nc2c(=O)n(C)c(=O)nc-2n(C)n1` [Compound 5c, 3-Ethyl-1,6-dimethylpyrimido[5,4-e][1,2,4]triazine-5,7(1H,6H)-dione], `Cc1nc2c(=O)n(C)c(=O)nc-2n(C)n1` [Compound 5b, 1,3,6-Trimethylpyrimido[5,4-e][1,2,4]triazine-5,7(1H,6H)-dione] is lower in LD50/IC50: 2.07 for the first, 2.02 for the second.

For `Cn1c(=O)c2nc(-c3ccccc3F)nnc2n(Cc2ccccc2)c1=O` [Compound 7d, 8-Benzyl-3-(2-fluorophenyl)-6-methylpyrimido[5,4-e][1,2,4]triazine-5,7(6H,8H)-dione], the LD50/IC50 was >13.59.
With `Cc1ccc(-c2n[nH]c3nc(=O)n(C)c(=O)c-3n2)cc1` [Compound 6a, 6-Methyl-3-p-tolylpyrimido[5,4-e][1,2,4]triazine-5,7(1H,6H)-dione] the LD50/IC50 was >2.37.
In the case of `Cn1c(=O)c2nc(-c3ccc(F)cc3)nnc2n(Cc2ccc(C(C)(C)C)cc2)c1=O` [Compound 7h, 8-(4-tert-Butylbenzyl)-3-(4-fluorophenyl)-6-methylpyrimido[5,4-e][1,2,4]triazine-5,7(6H,8H)-dione], the LD50/IC50 is reported as >909.
